Assay [1] has as its target T1, USP18A (from the untagged USP18 construct) (human) (UniProt Q9UMW8).
T1 sequence: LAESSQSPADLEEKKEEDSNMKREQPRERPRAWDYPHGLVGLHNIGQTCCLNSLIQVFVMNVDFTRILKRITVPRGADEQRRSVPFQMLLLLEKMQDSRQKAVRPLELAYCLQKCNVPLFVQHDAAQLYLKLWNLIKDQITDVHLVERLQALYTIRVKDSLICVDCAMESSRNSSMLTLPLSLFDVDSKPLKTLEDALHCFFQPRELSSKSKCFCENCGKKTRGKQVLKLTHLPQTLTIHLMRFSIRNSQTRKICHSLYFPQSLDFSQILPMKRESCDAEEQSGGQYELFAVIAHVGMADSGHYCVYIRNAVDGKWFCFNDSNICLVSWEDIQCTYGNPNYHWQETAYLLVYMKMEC
The assay is described as follows: affinity purification with mass spectrometry; bands of the two USP18 isoforms cut from the anti-FLAG (6HF-ISG15) immunoprecipitate, in-gel trypsin digest, LC-MS/MS; matching gel areas of the USP18-only sample as negative control.

In assay [2] the target is T2, USP18B (from the untagged USP18 construct) (human) (UniProt Q9UMW8).
T2 sequence: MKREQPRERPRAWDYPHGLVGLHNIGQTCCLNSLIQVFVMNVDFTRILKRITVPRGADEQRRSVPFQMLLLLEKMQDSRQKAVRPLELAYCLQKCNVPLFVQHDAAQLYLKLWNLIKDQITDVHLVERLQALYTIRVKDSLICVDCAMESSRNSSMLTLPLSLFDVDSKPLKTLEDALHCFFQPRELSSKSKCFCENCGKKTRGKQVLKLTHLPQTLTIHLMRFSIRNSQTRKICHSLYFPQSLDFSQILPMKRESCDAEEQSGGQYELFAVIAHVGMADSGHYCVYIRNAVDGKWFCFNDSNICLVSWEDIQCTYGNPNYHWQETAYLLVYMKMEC
Described as above.

This passage reports binding results from paper PMC12221285.

Results are given in words; binding and its absence hold for the method and conditions named. Binding seen in cells or lysates may run through a third protein. Here binding means that the protein was enriched with, or labelled near, the bait; the list need not be complete. Tags and fused reporters may be left off the sequences shown.

For “USP41 (found by mass spectrometry in the ISG15 immunoprecipitates) (human (endogenous in HEK-293T))”, the binding result in assay [1] and in assay [2] was “binds” in each case.
